No constants are given. Whether binding was seen depends on the method and setting. In cells and extracts the contact can be indirect. Some binding calls cover weakened binding; strength is not graded here. Where a sequence is shown, tags or fusion partners need not be part of it.
T1: Can1-Cub-GST-6xHA (S. cerevisiae) (UniProt P04817)
T1 sequence: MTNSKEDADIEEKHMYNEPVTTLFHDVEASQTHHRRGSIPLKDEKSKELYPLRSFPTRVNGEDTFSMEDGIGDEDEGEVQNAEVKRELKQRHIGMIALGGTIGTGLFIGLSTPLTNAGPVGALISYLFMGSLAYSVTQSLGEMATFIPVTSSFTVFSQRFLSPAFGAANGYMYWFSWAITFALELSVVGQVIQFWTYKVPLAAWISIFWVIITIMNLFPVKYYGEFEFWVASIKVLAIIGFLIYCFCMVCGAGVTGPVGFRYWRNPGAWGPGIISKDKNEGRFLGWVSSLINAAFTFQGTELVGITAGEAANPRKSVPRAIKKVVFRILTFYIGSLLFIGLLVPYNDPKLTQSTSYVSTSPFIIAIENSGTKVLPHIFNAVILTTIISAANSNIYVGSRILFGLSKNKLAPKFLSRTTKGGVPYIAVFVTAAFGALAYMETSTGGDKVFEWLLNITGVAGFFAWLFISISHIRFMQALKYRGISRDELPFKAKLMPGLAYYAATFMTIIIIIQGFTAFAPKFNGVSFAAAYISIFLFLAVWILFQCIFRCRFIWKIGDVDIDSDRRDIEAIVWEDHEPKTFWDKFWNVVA

T2: Lyp1-Cub-GST-6xHA (S. cerevisiae) (UniProt P32487)
T2 sequence: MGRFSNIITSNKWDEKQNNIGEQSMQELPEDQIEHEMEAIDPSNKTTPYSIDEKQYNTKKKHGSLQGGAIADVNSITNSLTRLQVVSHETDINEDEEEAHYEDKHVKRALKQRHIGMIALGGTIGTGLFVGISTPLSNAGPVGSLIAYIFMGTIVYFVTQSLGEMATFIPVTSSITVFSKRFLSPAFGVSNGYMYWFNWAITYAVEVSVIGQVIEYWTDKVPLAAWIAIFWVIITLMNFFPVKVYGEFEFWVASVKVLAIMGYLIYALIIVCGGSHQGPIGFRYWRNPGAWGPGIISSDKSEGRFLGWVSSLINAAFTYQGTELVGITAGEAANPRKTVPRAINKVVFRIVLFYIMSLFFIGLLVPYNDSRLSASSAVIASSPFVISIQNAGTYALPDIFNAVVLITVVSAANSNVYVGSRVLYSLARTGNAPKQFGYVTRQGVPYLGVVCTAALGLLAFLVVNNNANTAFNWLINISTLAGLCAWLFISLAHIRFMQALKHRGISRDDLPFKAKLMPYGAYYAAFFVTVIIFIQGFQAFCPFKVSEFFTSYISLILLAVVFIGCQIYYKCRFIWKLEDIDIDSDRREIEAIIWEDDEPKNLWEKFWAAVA

T3: Ssy1-Cub-GST-6xHA (S. cerevisiae) (UniProt Q03770)
T3 sequence: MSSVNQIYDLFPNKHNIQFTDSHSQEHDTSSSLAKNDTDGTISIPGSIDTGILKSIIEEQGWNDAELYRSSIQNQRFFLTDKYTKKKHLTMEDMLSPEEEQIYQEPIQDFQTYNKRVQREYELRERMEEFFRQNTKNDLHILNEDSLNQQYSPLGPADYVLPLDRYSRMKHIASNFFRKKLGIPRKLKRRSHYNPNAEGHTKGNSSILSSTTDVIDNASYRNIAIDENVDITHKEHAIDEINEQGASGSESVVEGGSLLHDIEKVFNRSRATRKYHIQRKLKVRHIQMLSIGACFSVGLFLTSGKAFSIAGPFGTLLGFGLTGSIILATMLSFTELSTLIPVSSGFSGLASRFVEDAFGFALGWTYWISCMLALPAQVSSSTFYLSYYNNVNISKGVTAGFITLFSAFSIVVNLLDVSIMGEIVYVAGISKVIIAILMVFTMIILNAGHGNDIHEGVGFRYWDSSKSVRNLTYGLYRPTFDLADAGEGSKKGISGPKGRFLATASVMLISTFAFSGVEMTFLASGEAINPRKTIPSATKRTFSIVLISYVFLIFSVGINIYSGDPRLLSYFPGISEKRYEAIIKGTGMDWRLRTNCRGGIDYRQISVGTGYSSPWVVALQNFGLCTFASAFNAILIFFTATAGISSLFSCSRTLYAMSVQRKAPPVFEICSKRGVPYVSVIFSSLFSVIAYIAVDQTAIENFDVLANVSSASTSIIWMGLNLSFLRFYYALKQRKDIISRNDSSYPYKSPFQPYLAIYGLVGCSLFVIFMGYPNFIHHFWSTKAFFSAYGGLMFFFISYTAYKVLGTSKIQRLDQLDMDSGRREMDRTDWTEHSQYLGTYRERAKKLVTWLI


Columns and labels:
Assay in all cases: split reporter
[1] = biological target: T1, Can1-Cub-GST-6xHA (S. cerevisiae)
[2] = biological target: T2, Lyp1-Cub-GST-6xHA (S. cerevisiae)
[3] = biological target: T3, Ssy1-Cub-GST-6xHA (S. cerevisiae)

| Binder | binding [1] | binding [2] | binding [3] |
| --- | --- | --- | --- |
| Shr3-NubA (protein, UniProt Q02774 1-210) MFSYSDFCSIGTAMILSATTFLMGVFFSNMPYDYHLLFNPNSTQEHFDLALRHYQILHETPLPVIVTLCVVAGIGLVGGTIKVFKPNPELQMFEYCSLGLYVLAICVFLTNVKTGIDCSVSHNWGEVTENQGLAVIASSNIILLVMFAGVIILQIGLWYSNWDLQKRLKEFYAQEEREAANAGKKTEKVDNAKKNDNKSKGAQKRKNAKK | binds weakly | binds weakly | binds |
| Shr3Δ94-NubA (protein, UniProt Q02774) MFSYSDFCSIGTAMILSATTFLMGVFFSNMPYDYHLLFNPNSTQEHFDLALRHYQILHETPLPVIVTLCVVAGIGLVGGTIKVFKPNPELQMFEYCSLGLYVLAICVFLTNVKTGIDCSVTENQGLAVIASSNIILLVMFAGVIILQIGLWYSNWDLQKRLKEFYAQEEREAANAGKKTEKVDNAKKNDNKSKGAQKRKNAKK | binds weakly | binds weakly | binds |

Reference: doi:10.1101/2020.07.05.188557
